Reference: the supplement of paper PMC10663445
Where a name gives a salt, the structure may show the parent alone. The list shows a part of the results. Single values are uncertain, as repeats are few or missing.

Each compound was assayed on hsa-miR-132-3p (assay: miR-132-3p level in NGN2-iNs after compound treatment (TMM-normalised, ComBat batch-corrected) (batch-corrected normalised expression (arbitrary units)); higher = higher miR-132-3p expression). Settings: 10 µM; 24 h; human iPSC-derived NGN2 neurons (BR43).

| SMILES | miR-132-3p level in NGN2-iNs |
| --- | --- |
| COc1ccc(O)cc1 [Mequinol] | 0.496 |
| Cc1c(-c2ccccc2)oc2c(C(=O)OCCN3CCCCC3)cccc2c1=O [Flavoxate HCl] | -0.135 |
| CCOc1ccc2ccccc2c1C(=O)N[C@@H]1C(=O)N2[C@@H]1SC(C)(C)[C@@H]2C(=O)O [Nafcillin Sodium] | -0.555 |
| C=C1/C(=C\C=C2/CCC[C@]3(C)[C@@H]([C@H](C)CCCC(C)C)CC[C@@H]23)C[C@@H](O)C[C@@H]1O [Alfacalcidol] | -0.288 |
| CCC[C@@H]1C[C@@H](C(=O)N[C@@H]([C@H]2O[C@H](SC)[C@H](O)[C@@H](O)[C@H]2O)[C@H](C)Cl)N(C)C1 [Clindamycin] | -0.286 |
| CCC[C@@H]1C[C@@H](C(=O)N[C@@H]([C@H]2O[C@H](SC)[C@H](O)[C@@H](O)[C@H]2O)[C@H](C)Cl)N(C)C1 [Clindamycin HCl] | -0.0577 |
| O=C(N[C@H](CO)[C@H](O)c1ccc([N+](=O)[O-])cc1)C(Cl)Cl [Chloramphenicol] | 0.653 |
| C[S+]([O-])c1ccc(-c2nc(-c3ccc(F)cc3)c(-c3ccncc3)[nH]2)cc1 (centres undefined) | 0.837 |
| COc1ccccc1Oc1c(NS(=O)(=O)c2ccc(C(C)(C)C)cc2)nc(-c2ncccn2)nc1OCCO [Bosentan Hydrate] | 0.937 |
| Cc1cc(=O)[nH]c(=S)[nH]1 [Methylthiouracil] | 0.561 |
| Nc1nc(CC(=O)Nc2ccc(CCNC[C@H](O)c3ccccc3)cc2)cs1 [Mirabegron] | 0.376 |
| CC[C@]1(O)C[C@H]2CN(CCc3c([nH]c4ccccc34)[C@@](C(=O)OC)(c3cc4c(cc3OC)N(C=O)[C@H]3[C@@](O)(C(=O)OC)[C@H](OC(C)=O)[C@]5(CC)C=CCN6CC[C@]43[C@@H]65)C2)C1 [Vincristine sulfate] | 1.68 |
| COc1ccccc1OCC(O)CO (centres undefined) [Guaifenesin] | 0.15 |
| Oc1ccc(/C=C/c2cc(O)cc(O)c2)cc1 [Resveratrol] | 0.091 |
| CCN(CC)CCNC(=O)c1c(C)[nH]c(/C=C2\C(=O)Nc3ccc(F)cc32)c1C [Sunitinib Malate] | 0.404 |
| COc1ccc(/C=C/C(=O)Nc2ccccc2C(=O)O)cc1OC [Tranilast] | -0.00792 |
| CCOc1cc2ncc(C#N)c(Nc3ccc(F)c(Cl)c3)c2cc1NC(=O)/C=C/CN(C)C [Pelitinib (EKB-569)] | 2 |
| Cc1c(N(C)C)c(=O)n(-c2ccccc2)n1C [Amidopyrine] | -0.928 |
| Cc1cc(/C=C/C#N)cc(C)c1Nc1ccnc(Nc2ccc(C#N)cc2)n1 [Rilpivirine] | -0.24 |
| O=C1c2c(O)cccc2C([C@@H]2O[C@H](CO)[C@@H](O)[C@H](O)[C@H]2O)c2cc(CO)cc(O)c21 (some centres undefined) [Aloin] | -0.389 |
| O=C(Nc1cccc(C(F)(F)F)c1)Nc1cc(S(=O)(=O)NC2CC2)ccc1-c1ccsc1 | -0.338 |
| CC(C(=O)O)c1ccc2c(c1)[nH]c1ccc(Cl)cc12 (centres undefined) [Carprofen] | 0.795 |

| SMILES | miR-132-3p level in NGN2-iNs |
| --- | --- |
| CC(NC(=O)C(Cc1ccccc1)NC(=O)OCc1ccccc1)C(=O)CF (centres undefined) | -0.896 |
| Cc1ccccc1C(=O)Nc1ccc(C(=O)N2CCCC(O)c3cc(Cl)ccc32)c(C)c1 (centres undefined) [Tolvaptan] | -1.07 |
| COc1cc2c(N3CCN(C(=O)Nc4ccc(OC(C)C)cc4)CC3)ncnc2cc1OCCCN1CCCCC1 [Tandutinib (MLN518)] | 0.219 |
| Cc1cc(O)c2c(c1)C(=O)c1cccc(O)c1C2=O [Chrysophanic Acid] | 0.664 |
| NC(=O)c1cn(Cc2c(F)cccc2F)nn1 [Rufinamide] | -0.904 |
| CC(C(=O)O)c1ccc(-c2ccccc2)c(F)c1 (centres undefined) [Flurbiprofen] | 0.975 |
| Cc1c(OCC(F)(F)F)ccnc1C[S@@+]([O-])c1nc2ccccc2[nH]1 [Dexlansoprazole] | -1.09 |
| C[C@H]1O[C@@H](O[C@H]2[C@@H](O)C[C@H](O[C@H]3[C@@H](O)C[C@H](O[C@H]4CC[C@@]5(C)[C@H](CC[C@@H]6[C@@H]5C[C@@H](O)[C@]5(C)[C@@H](C7=CC(=O)OC7)CC[C@]65O)C4)O[C@@H]3C)O[C@@H]2C)C[C@H](O)[C@@H]1O [Digoxin] | 3.2 |
| C[C@]1(O)C[C@@H](c2nc(-c3ccc4ccc(-c5ccccc5)nc4c3)c3c(N)nccn32)C1 [Linsitinib (OSI-906)] | -0.106 |
| O=C(C1CCCCC1)N1CC(=O)N2CCc3ccccc3C2C1 (centres undefined) [Praziquantel] | 0.531 |
| C[C@@H]1CCO[C@H]2Cn3cc(C(=O)NCc4ccc(F)cc4F)c(=O)c(O)c3C(=O)N12 | -0.872 |
| CNC(=O)c1cc(Oc2ccc(NC(=O)Nc3cc(C(C)(C)C)nn3-c3ccc4ncccc4c3)c(F)c2)ccn1 [Rebastinib (DCC-2036)] | 0.263 |
| CC(C)C[C@H](NC(=O)[C@@H](NC(=O)c1cccc(-c2ccccc2)n1)[C@@H](C)O)B(O)O | 0.626 |
| CN(C)CC(=O)Nc1ccc2[nH]c(=O)c3ccccc3c2c1 | 1.36 |
| CNC(=O)c1cc(Oc2ccc(NC(=O)Nc3ccc(Cl)c(C(F)(F)F)c3)c(F)c2)ccn1 [Regorafenib (BAY 73-4506)] | -0.6 |
| O=C(O)c1cc(/N=N/c2ccc(O)c(C(=O)O)c2)ccc1O [Olsalazine Sodium] | -0.805 |
| O=C(CCc1ccc(O)cc1)c1c(O)cc(O)cc1O | -0.433 |
| CC[C@H](C)[C@H](N)C1=N[C@H](C(=O)N[C@@H](CC(C)C)C(=O)N[C@H](CCC(=O)O)C(=O)N[C@H](C(=O)N[C@H]2CCCCNC(=O)[C@H](CC(N)=O)NC(=O)[C@@H](CC(=O)O)NC(=O)[C@H](Cc3cnc[nH]3)NC(=O)[C@@H](Cc3ccccc3)NC(=O)[C@H]([C@@H](C)CC)NC(=O)[C@@H](CCCN)NC2=O)[C@@H](C)CC)CS1 [Bacitracin] | -1.15 |
| O=C(NCc1ccccc1)c1csc(Nc2ccncn2)n1 [Thiazovivin] | 0.885 |
| CNC[C@H](O)c1ccc(O)c(O)c1 [Epinephrine HCl] | 0.786 |
| CNC[C@H](O)c1ccc(O)c(O)c1 [Epinephrine bitartrate] | 0.102 |
| CC(S)C(=O)NCC(=O)O (centres undefined) [Tiopronin] | 0.244 |

2 records drawn at random from the list so far, as already listed:

| SMILES | miR-132-3p level in NGN2-iNs |
| --- | --- |
| COc1ccccc1OCC(O)CO (centres undefined) [Guaifenesin] | 0.15 |
| CCC[C@@H]1C[C@@H](C(=O)N[C@@H]([C@H]2O[C@H](SC)[C@H](O)[C@@H](O)[C@H]2O)[C@H](C)Cl)N(C)C1 [Clindamycin HCl] | -0.0577 |
